Laboratory results reported in PubChem BioAssay AID588590 (National Center for Advancing Translational Sciences (NCATS), 2011).
The campaign covered roughly 390,000 compounds. About 4,000 (1%) were called active. Inconclusive results, whose numbers are uncertain, are shown with a selection of clear calls. The call rests on the fitted dose curve; in most records, active means well fitted inhibition curve with a large enough effect; inconclusive means small, poorly fitted or top-dose-only effect, or another doubt; inactive means no such curve, though single readings can be large or run the other way. A potency beside an inconclusive call is a rough fit, not a confirmed value.

Protein sequences, listed by entry. Tags and fused reporters are not part of them. Lines headed by an entry give the natural chain unless they say otherwise; changes in a name come on top.
UniProt Q9UNA4: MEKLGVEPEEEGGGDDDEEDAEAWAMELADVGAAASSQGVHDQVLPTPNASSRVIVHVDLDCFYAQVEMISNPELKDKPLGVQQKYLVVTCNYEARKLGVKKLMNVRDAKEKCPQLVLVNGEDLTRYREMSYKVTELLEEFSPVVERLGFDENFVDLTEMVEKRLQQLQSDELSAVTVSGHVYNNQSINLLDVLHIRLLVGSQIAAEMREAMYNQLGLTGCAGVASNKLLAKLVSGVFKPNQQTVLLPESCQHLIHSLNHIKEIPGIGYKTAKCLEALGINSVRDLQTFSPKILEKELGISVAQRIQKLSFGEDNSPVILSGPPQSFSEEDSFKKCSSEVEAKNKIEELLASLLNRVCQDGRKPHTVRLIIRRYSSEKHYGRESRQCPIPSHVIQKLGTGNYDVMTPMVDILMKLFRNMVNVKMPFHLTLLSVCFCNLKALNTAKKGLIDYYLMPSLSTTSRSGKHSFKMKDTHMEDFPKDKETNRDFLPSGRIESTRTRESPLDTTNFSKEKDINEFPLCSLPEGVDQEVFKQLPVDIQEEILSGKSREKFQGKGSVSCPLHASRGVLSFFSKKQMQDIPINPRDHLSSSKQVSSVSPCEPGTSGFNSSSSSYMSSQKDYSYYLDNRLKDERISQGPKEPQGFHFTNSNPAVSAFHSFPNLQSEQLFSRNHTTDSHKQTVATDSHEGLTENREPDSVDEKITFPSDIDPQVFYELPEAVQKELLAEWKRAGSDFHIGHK

The molecules below were run against DNA polymerase iota (Homo sapiens) (UniProt Q9UNA4) (assay: qHTS for Inhibitors of Polymerase Iota). Conditions: Pol iota fluorescent replication assay, 10 min; series mostly up to 115 µM.
Procedure, shortened: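 Pol iota at 10 nM preincubated 15 min with compounds at room temperature; reaction started with fluorescent substrate, 50 nM final. Fluorescence read kinetically at 0 and 10 min; buffer-only wells as negative control.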
Potency means the concentration at half of the fitted maximal effect.

Potency, active:
CCN(CC)CCNc1ccc(CO)c2sc3ccccc3c(=O)c12 20 µM
COc1cc(/C=C/C(=O)c2c(O)ccc3c(C)cc(=O)oc23)ccc1O 12.6 µM

Potency, inactive:
CCC(C)NC(=O)C1CCC(=O)N1CCc1ccccc1 (centres undefined)
COc1cc(C2C(C#N)=C(N)Oc3cc(C)n(CCN4CCOCC4)c(=O)c32)cc(OC)c1OC (centres undefined)
COc1ccccc1CNc1nc(-c2ccco2)nn1C(=O)c1cc(OC)c(OC)c(OC)c1
CCc1ccccc1NC(=O)c1cc(S(=O)(=O)N2CCc3ccccc32)ccc1F
Cc1ccc(-c2nnc(Nc3ccc(OC(F)(F)Cl)cc3)c3ccccc23)cc1S(=O)(=O)NC(C)(C)CO
COc1ccccc1C(=O)COC(=O)c1ccc(Cl)nc1
CC(/C=N/NC(=O)c1cccc(F)c1)=C\c1ccccc1
Cc1ccccc1NS(=O)(=O)c1c(C(=O)N2CCCCCC2)c(C)n(C)c1C
Nc1cc(C(=O)O)ccc1Sc1ccccc1C(=O)O
O=C(CN1C(=O)COc2ccc(S(=O)(=O)N3CCCCCC3)cc21)Nc1cccc(Cl)c1
CCOc1ccc(C(=O)c2cn(CC(=O)Nc3cccc(OC)c3)c3cc4c(cc3c2=O)OCCO4)cc1
CC1=CCC2C(=O)N(C(C)c3ccccc3)C(=O)C2C1 (centres undefined)
Cc1ccc(-c2[nH]c3c(c2-c2c(-n4cccc4)n(C)c(=O)[nH]c2=O)c(=O)[nH]c(=O)n3C)cc1
C=CCOc1ccc(-c2n[nH]c(=S)o2)cc1
CCn1c(SC(C)C(=O)Nc2ccc(C)cc2)nnc1-c1ccccc1 (centres undefined)
Nc1nc(NCCO)nc(N2CCCCCC2)c1[N+](=O)[O-]
Cc1csc2nc(COC(=O)CNC(=O)c3ccc(F)cc3)cc(=O)n12

Arranged by formula weight (low to high): some entries from above
Potency, inactive:
C=CCOc1ccc(-c2n[nH]c(=S)o2)cc1
CCC(C)NC(=O)C1CCC(=O)N1CCc1ccccc1 (centres undefined)
Nc1cc(C(=O)O)ccc1Sc1ccccc1C(=O)O
Nc1nc(NCCO)nc(N2CCCCCC2)c1[N+](=O)[O-]
Cc1csc2nc(COC(=O)CNC(=O)c3ccc(F)cc3)cc(=O)n12
O=C(CN1C(=O)COc2ccc(S(=O)(=O)N3CCCCCC3)cc21)Nc1cccc(Cl)c1
CCOc1ccc(C(=O)c2cn(CC(=O)Nc3cccc(OC)c3)c3cc4c(cc3c2=O)OCCO4)cc1

Next part.

Potency, inconclusive:
O=C(N/N=C/c1ccc(O)c(O)c1O)/C(=C/c1ccc([N+](=O)[O-])cc1)NC(=O)c1ccccc1 0.891 µM [inhibitor, full curve, poor fit]
CCc1nnc(NC(=O)CSc2nncc(=O)n2N)s1 63.1 µM [inhibitor, partial curve, poor fit]
N#C/C(=C\c1cccc([N+](=O)[O-])c1)c1ccccn1 31.6 µM [inhibitor, single point]
Cc1ccc(C2=NS(=O)(=O)N(C)C(C(=O)NC(C)c3ccccc3)=C2)cc1 (centres undefined) 31.6 µM [inhibitor, partial curve, poor fit]
CC(=O)N1CCc2c(sc3nc(SCC(C)C)n(-c4ccc(C)c(Cl)c4)c(=O)c23)C1 56.2 µM [inhibitor, partial curve]
N#Cc1c(NC(=O)Cn2nc(C(F)(F)F)c3c2CCCC3)sc2c1CCC2 14.1 µM [inhibitor, partial curve, poor fit]
O=C(c1ccc(S(=O)(=O)N2CCOCC2)cc1)N1CCOCC1 35.5 µM [inhibitor, single point]
N#Cc1c(N)sc(=S)c2c1CCCCC2 11.2 µM [inhibitor, full curve, poor fit]
CC(C)(C)C(=O)[C@@H]1[C@@H]2C(=O)N(C3CCCCC3)C(=O)[C@@H]2[C@H]2c3ccccc3C=CN12 2.51 µM [inhibitor, full curve, poor fit]
CCC(C)Sc1cc(-c2nc3ccccn3c2NC2CCCCC2)ccc1OC (centres undefined) 22.4 µM [inhibitor, single point]
COc1ccc(NC(=O)CCS(=O)(=O)c2nc(-c3ccc4c(c3)OCO4)cc(C(F)(F)F)n2)cc1 31.6 µM [inhibitor, single point]
Cc1c(C(=O)N2CCCC2)oc2c1-c1nn(CC(=O)NCc3ccccc3Br)cc1CC2 39.8 µM [inhibitor, single point]
CCOc1ccccc1NC(C)C(=O)Nc1cc(C(F)(F)F)ccc1N1CCOCC1 (centres undefined) 5.01 µM [inhibitor, partial curve, poor fit]
Cc1c(NC(=O)C2CCCN2S(=O)(=O)c2ccc(Cl)cc2)c(=O)n(-c2ccccc2)n1C (centres undefined) 100 µM [inhibitor, partial curve, poor fit]
Cc1c(-c2ccccc2)sc(N)c1C(=O)N1CCOCC1 22.4 µM [inhibitor, single point]
c1ccc2cc(CN3CCOCC3)ccc2c1 22.4 µM [inhibitor, partial curve, poor fit]
Cc1ccc(S(=O)(=O)/N=C2/NC(=O)/C(=C/c3cccnc3)S2)cc1 22.4 µM [inhibitor, partial curve, poor fit]
CC1Cc2cc(-c3csc(NC(=O)Cc4cccs4)n3)ccc2N1S(C)(=O)=O (centres undefined) 56.2 µM [inhibitor, partial curve, poor fit]
COc1ccc(C2=NN(C(=O)c3ccccc3C(=O)O)C(c3ccccc3O)C2)cc1 (centres undefined) 0.631 µM [inhibitor, full curve, poor fit]
CC1=C(C)CC(C(=O)Nc2cccc([N+](=O)[O-])c2)C(C(=O)O)C1 (centres undefined) 112 µM [inhibitor, partial curve, poor fit]
COc1ccccc1C1CC(=O)Oc2cc(C)c(Br)c(C)c21 (centres undefined) 89.1 µM [inhibitor, partial curve, poor fit]
Nc1ccc(O)c(-c2nc3ccccc3s2)c1 20 µM [inhibitor, partial curve]
CC1CN(Cc2nc3c(c(=O)n(C)c(=O)n3C)n2Cc2ccccc2)CC(C)O1 (centres undefined) 39.8 µM [inhibitor, single point]
Cc1ccc(NC(=O)C(=O)NN)cc1 10 µM [inhibitor, partial curve, poor fit]
CCCC[N+](C)(C)CCC(=O)NC(C)(C)CS(=O)(=O)[O-] 10 µM [inhibitor, full curve, poor fit]
O=C(Nc1cccnc1Cl)c1cc2c(s1)-c1ccccc1OC2 79.4 µM [inhibitor, partial curve]
O=C(CSc1nnc2ccc(-c3ccncc3)nn12)c1cccs1 39.8 µM [inhibitor, partial curve]
O=C(NOC(=O)c1ccccc1Cl)c1cccs1 28.2 µM [inhibitor, full curve, poor fit]
CC(C)CCSc1nc2c(c(=O)[nH]c(=O)n2C)n1CCc1ccccc1 0.794 µM [inhibitor, partial curve, poor fit]
CC(OC(=O)C1=Cc2ccccc2OC1)C(=O)NCC1CCCO1 (centres undefined) 31.6 µM [inhibitor, partial curve, poor fit]
CCOC(=O)c1ccc(CNC(=O)c2cc(C(C)(C)C)oc2C)o1 7.94 µM [inhibitor, partial curve, poor fit]
Cn1c(=O)cc(OCC(=O)NCc2cccnc2)c2ccccc21 1.58 µM [inhibitor, full curve, poor fit]
Cn1c2ccccc2c2cc(/C=N/NC(=O)c3ccccc3F)ccc21 10 µM [inhibitor, full curve, poor fit]
CCCCCCCCCC(=O)NC(CN1CCOCC1)[C@H](O)c1ccccc1 (some centres undefined) 0.282 µM [inhibitor, full curve, poor fit]
CSc1ccc(/C=C2\C(=N)N3N=C(CC(=O)N4CCCCC4)SC3=NC2=O)cc1 56.2 µM [inhibitor, partial curve, poor fit]
COc1ccc(CSc2nc3ccncc3n2CC(=O)Nc2cc(C)cc(C)c2)cc1 31.6 µM [inhibitor, partial curve, poor fit]
COc1ccc(OC)c(CNC(=O)CCSCc2ccc(F)cc2Cl)c1 0.708 µM [inhibitor, full curve, poor fit]
O=C(CN1C(=O)S/C(=C\c2cccs2)C1=O)Nc1ccc(O)cc1C(=O)O 56.2 µM [inhibitor, partial curve, poor fit]
O=C(CCCCC(=O)Sc1ccccc1)Sc1ccccc1 31.6 µM [inhibitor, partial curve, poor fit]
O=[n+]1c2c(n([O-])c3cc(F)c(F)cc31)CCCC2 56.2 µM [inhibitor, partial curve, poor fit]
OC(COCc1ccccc1)CN1CCN(c2ccccc2)CC1 (centres undefined) 39.8 µM [inhibitor, partial curve, poor fit]
CCOc1ccc(Cl)cc1CNc1nnnn1C 20 µM [inhibitor, full curve, poor fit]
COc1ccc(OC)c(-c2[nH]nc3c2C(c2ccco2)C(C#N)=C(N)O3)c1 (centres undefined) 3.16 µM [inhibitor, full curve, poor fit]
O=C(COC(=O)c1ccc([N+](=O)[O-])o1)Nc1nc2ccccc2s1 25.1 µM [inhibitor, partial curve, poor fit]
CCOC(=O)c1sc(NC(=O)CSc2ncn(-c3ccccc3)n2)nc1C 25.1 µM [inhibitor, partial curve, poor fit]
